Results on 1 sequence are retold here after patent US6335190.

For some assays here: A weaker result is weaker than the reference pair of the same experiment. Where a protein sequence is shown, tags need not be part of it.

The test system of data set [1] is T1, BsmI methylase M2 (Bacillus stearothermophilus).
T1 sequence: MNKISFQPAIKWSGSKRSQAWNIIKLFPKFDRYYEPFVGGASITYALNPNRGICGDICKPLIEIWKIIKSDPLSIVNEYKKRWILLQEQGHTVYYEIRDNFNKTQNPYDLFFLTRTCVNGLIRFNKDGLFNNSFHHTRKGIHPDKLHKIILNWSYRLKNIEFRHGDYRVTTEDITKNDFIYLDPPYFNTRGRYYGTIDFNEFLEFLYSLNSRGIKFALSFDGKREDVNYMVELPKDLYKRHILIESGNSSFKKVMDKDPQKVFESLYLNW
Put plainly: activity in cells. The settings on record: M2 expressed from pBR322; isolate #9 resistant to BsmI; M1 and M2 together fully resistant; protein in cells; only the site is given.

Data set [2] relates to T2, BsmI methylase M1 (Bacillus stearothermophilus).
T2 sequence: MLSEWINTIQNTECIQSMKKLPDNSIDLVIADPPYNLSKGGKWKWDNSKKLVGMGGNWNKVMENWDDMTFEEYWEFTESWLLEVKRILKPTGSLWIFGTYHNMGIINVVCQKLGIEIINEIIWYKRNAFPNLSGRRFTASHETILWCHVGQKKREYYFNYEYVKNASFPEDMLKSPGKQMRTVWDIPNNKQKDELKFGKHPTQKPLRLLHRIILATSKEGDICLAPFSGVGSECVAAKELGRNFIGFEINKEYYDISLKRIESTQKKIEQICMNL
Put plainly: activity in cells. The settings on record: M1 expressed from pBR322; plasmid only partially resistant to BsmI digestion; protein in cells; only the site is given.

For “GAATGC (double strand) [BsmI recognition site (in pBR322-derived expression plasmid)]”, the figures for the “activity on this sequence” value in data set [1] and in data set [2] were “active” and “less active”, respectively.
